Measurements published in PubChem BioAssay AID540276 (National Center for Advancing Translational Sciences (NCATS), 2011).
Several values for one entry are separate records, joined by “and”; a condition that tells them apart may be missing. Equal values may be shown once. Among all 300,000 compounds or so, about 5,400 (1.8%) were called active. The inconclusive results got no clear call from the source; some entries with a clear call stand among them for comparison. Calls come from the whole dose curve; tested in HEK293 cells. A potency beside an inconclusive call is a rough fit, not a confirmed value.
% is set by controls: 0 for no effect and ±100 for the full control effect; potency is the fitted concentration of half-maximal effect.

Assay: qHTS for inhibitors of binding or entry into cells for Marburg Virus
Details: Marburg virus pseudotyped entry inhibition, cell reporter; activity change, negative = inhibition: at 37.8 µM (top of the series) unless noted
For `CCn1nc(C)c(CNC(=O)c2ccc(OC3CCN(Cc4ccccn4)CC3)cc2)c1C`, the Potency was inconclusive: 0.891 µM [inhibitor, partial curve, poor fit].
With `COc1cccc(C(=O)NCC2CCCN2S(=O)(=O)c2ccccc2)c1` (stereo unspecified) the “activity change, negative = inhibition” value was inactive: 0.666% [at 46.1 µM].
For `CCCn1nnc(NC(=O)c2ccc(Cl)cc2Cl)n1`, the “activity change, negative = inhibition” value was inactive: -20.2%.
With `NNC(=O)c1cc2ccccc2[nH]1` the Potency was inconclusive: 3.98 µM [inhibitor, full curve].
For `CCN1C(=O)C2(c3ccccc31)c1c(oc3ccc(C)cc3c1=O)C(=O)N2CCCOC(C)C` (stereo unspecified), the “activity change, negative = inhibition” value was inactive: 0.276% [at 46.1 µM].
In the case of `C/C(=N\NC(=O)c1ccc(C)cc1C)c1ccc2c(c1)OCO2`, the Potency is reported as inconclusive: 3.16 µM [inhibitor, partial curve, poor fit].
For `COc1ccc2c(c1)CCC1C2CC[C@@]2(C)C1CC[C@@H]2NCCCCCCN1C(=O)C=CC1=O` (stereo partly specified), the Potency was inconclusive: 20 nM [activator, full curve, poor fit] and inconclusive: 13 µM [activator, partial curve].
With `COc1ccc(CCn2c(=O)[nH]c3cc(C(=O)N4CCN(c5ccccc5)CC4)ccc3c2=O)cc1OC` the Potency was inconclusive: 5.62 µM [inhibitor, single point].
In the case of `CCCCc1ccc(-c2ccc(Br)cc2O)nc1`, the Potency is reported as inconclusive: 32.6 µM [inhibitor, single point].
With `CCCCCN(C(=O)CCC(=O)OCC(=O)N(C)C1CCCCC1)c1c(N)n(CCCC)c(=O)[nH]c1=O` the Potency was inconclusive: 35.5 µM [activator, single point].
In the case of `CCC(C)(C)n1nnnc1C(c1cc2ccc(C)cc2[nH]c1=O)N(Cc1cccnc1)Cc1ccco1` (stereo unspecified), the Potency is reported as inconclusive: 20.6 µM [inhibitor, partial curve].
With `CC(=O)Nc1ccn(-c2ccccc2)n1` the Potency was inconclusive: 10 µM [activator, partial curve].
With `C/C(=N\NC(=O)c1ccc2c(c1)OCO2)c1ccco1` the “activity change, negative = inhibition” value was inactive: -26.9% [at 46.1 µM].
For `COc1ccc(C2Nc3ccccc3C(=O)N2c2ccc(F)cc2)cc1CSc1ccccn1` (stereo unspecified), the Potency was inconclusive: 1.26 µM [activator, partial curve, poor fit].
For `O=C1CN(S(=O)(=O)c2ccccc2)CCN1`, the “activity change, negative = inhibition” value was inactive: 3.86%.
For `O=C(NCCc1c[nH]c2ccccc12)C(=O)NCC(c1cccnc1)N1CCN(c2ccccc2)CC1` (stereo unspecified), the “activity change, negative = inhibition” value was inactive: -54.7%.
For `CCN(CC)CCN=Cc1c(O)n(Cc2ccco2)c(=O)[nH]c1=O`, the Potency was inconclusive: 6.31 µM [activator, single point].
For `Cc1ccc(SCc2ccc(C(=O)Nc3cccc([N+](=O)[O-])c3C)cc2)cc1`, the Potency was inconclusive: 18.3 µM [inhibitor, single point].
For `CCOC(=O)C1(Cc2cccc(OC)c2)CCCN(C(=O)CCSC)C1` (stereo unspecified), the Potency was inconclusive: 2 µM [activator, full curve, poor fit].
For `COc1ccccc1NCC(O)COc1ccc(C(C)(C)C)cc1` (stereo unspecified), the Potency was inconclusive: 35.5 µM [inhibitor, single point].
For `CCOc1ccc2nc(SCc3ccccc3C#N)sc2c1`, the Potency was inconclusive: 5.62 µM [activator, single point].
With `CCOc1ccccc1N(C)C(=O)Cn1ncc2c([nH]c3ccccc32)c1=O` the Potency was active: 6.31 µM.
For `CCOC(=O)C1CCCN(CC(=O)/C=C2/N(C)c3ccccc3C2(C)C)C1` (stereo unspecified), the Potency was inconclusive: 35.5 µM [inhibitor, single point].
For `Fc1ccc(NC(=S)NNc2ncc(C(F)(F)F)cc2Cl)c(F)c1`, the Potency was inconclusive: 7.94 µM [inhibitor, partial curve, poor fit].
For `CN1CC(=O)N(CC(=O)Nc2ccc(Cl)c(C(F)(F)F)c2)C1=O`, the Potency was inconclusive: 31.6 µM [activator, single point].
In the case of `CS(=O)(=O)N(CC(=O)Nc1cccc(Br)c1)Cc1ccccc1`, the Potency is reported as inconclusive: 35.5 µM [inhibitor, single point].
For `Cc1cccc(N=C2c3cc([N+](=O)[O-])ccc3-c3c2cc([N+](=O)[O-])cc3[N+](=O)[O-])c1`, the Potency was inconclusive: 20 µM [inhibitor, single point].
With `CN(Cc1c(C(=O)N2CCc3ccccc3C2)nc2ccc(Cl)cn12)C(C1CC1)C1CC1` the “activity change, negative = inhibition” value was inactive: 14.9%.
For `Cc1ccc(S(=O)(=O)c2nc(NN(C)C)sc2Cl)cc1`, the Potency was inconclusive: 20 µM [inhibitor, single point].
For `COc1cc(/C=N/N(C)c2ccccc2)ccc1O`, the Potency was inconclusive: 35.5 µM [inhibitor, single point].
With `C/C(=N\Nc1ccc(Cl)nn1)c1ccccc1O` the Potency was inconclusive: 3.98 µM [inhibitor, full curve, poor fit].
In the case of `CCC(CC)C(=O)NCCc1cc2ccc(OC)cc2[nH]c1=O`, the Potency is reported as inconclusive: 35.5 µM [inhibitor, single point].
For `Cc1n[nH]c(C)c1CCNCc1ccc(OCC(O)CN2CCCCC2)cc1` (stereo unspecified), the Potency was inconclusive: 35.5 µM [inhibitor, single point].
For `N#CC(C#N)=C1C=CC=CN1/C(=C\c1ccccc1Cl)C(=O)c1ccccc1`, the Potency was inconclusive: 22.4 µM [inhibitor, partial curve, poor fit].
In the case of `N#C/C(C(N)=O)=c1/ccc2c(c1)N1C3=C(CCCC3)CC3CCCCC31N=2` (stereo unspecified), the “activity change, negative = inhibition” value is reported as inactive: 0.806%.
In the case of `CCOC(=O)C1=C(Cn2cnc3ccccc32)NC(=O)NC1c1cc(C)ccc1C` (stereo unspecified), the Potency is reported as inconclusive: 16.4 µM [inhibitor, partial curve, poor fit].
With `Cc1cc(C)c(C(N)=O)c(Nc2ccc3c(c2)OCCO3)n1` the Potency was inconclusive: 6.31 µM [activator, partial curve].
With `COc1ccc(CN2CCN(Cc3ccco3)CC2)cc1` the Potency was inconclusive: 35.5 µM [inhibitor, single point].
In the case of `CCN(CC(=O)Nc1cccc(F)c1)Cc1nc2ccccc2c(=O)[nH]1`, the Potency is reported as inconclusive: 35.5 µM [inhibitor, single point].
For `C[C@]1(C(=O)NCc2cc(F)cc(C(F)(F)F)c2)C=C[C@@H](Cc2ccccc2)N1C(=O)c1ccccc1`, the “activity change, negative = inhibition” value was inactive: -24.6%.
For `Cc1nn(-c2ccccc2)c2c1C(c1cccnc1)N1C=C(S(=O)(=O)N3CCCCC3)C=CC1=N2` (stereo unspecified), the Potency was inconclusive: 3.55 µM [inhibitor, single point].
In the case of `Cc1c(CC(=O)NCCCC(=O)O)c(=O)oc2cc3oc4c(c3cc12)CCCC4`, the “activity change, negative = inhibition” value is reported as inactive: -2.04%.
With `COc1ccc(-c2cc(C(F)(F)F)nc(SCCC(=O)Nc3cc(C)ccc3O)n2)cc1` the Potency was inconclusive: 10 µM [activator, partial curve].
With `O=C1C2C3CCC(C3)C2C(=O)N1c1ccc(OS(=O)(=O)c2ccccc2)cc1` (stereo unspecified) the Potency was inconclusive: 10 µM [inhibitor, single point].
For `COc1cccc(CNc2nnnn2C)c1`, the Potency was inconclusive: 5.62 µM [inhibitor, single point].
For `O=C(Nc1nnc(-c2ccccc2)o1)c1ccc(Cl)cc1`, the Potency was active: 12.6 µM.
In the case of `Cc1c(Cl)cccc1Nc1nc(NCCO)c2ccccc2n1`, the Potency is reported as active: 7.94 µM.
In the case of `c1cc2cn[nH]c2cc1NC1CCCCCC1`, the Potency is reported as inconclusive: 32.6 µM [inhibitor, single point].
In the case of `Cc1nc2ccc(NC(=O)c3cccc(S(=O)(=O)N4CCOCC4)c3)cc2s1`, the Potency is reported as inconclusive: 0.112 µM [inhibitor, full curve, poor fit].
With `CC(C)(C)C1(C)OC(C(=O)NC2CCCCC2)C(C(=O)NC2CCCCC2)O1` (stereo unspecified) the Potency was inconclusive: 29.1 µM [inhibitor, single point].
In the case of `N=c1c(C(=O)NCc2ccco2)cc2c(=O)n3ccccc3nc2n1Cc1ccc(Cl)cc1`, the Potency is reported as inconclusive: 8.2 µM [inhibitor, partial curve, poor fit].
In the case of `O=C(CCN1C(=O)C2C3C=CC(C4CC34)C2C1=O)Oc1cccc2cccnc12` (stereo unspecified), the Potency is reported as active: 16.4 µM.
In the case of `COc1cccc(CC2(CO)CCN(Cc3cnc(N4CCOCC4)s3)CC2)c1`, the Potency is reported as inconclusive: 11.2 µM [inhibitor, partial curve, poor fit].
For `CN(C)CCNC(=O)c1cccc2nc3c(ccc4ccccc43)nc12`, the Potency was inconclusive: 35.5 µM [inhibitor, single point].
With `Cc1cc(C)n(-c2cccc(CN3CCC(CO)(Cc4ccccc4)CC3)c2)n1` the Potency was inconclusive: 22.4 µM [inhibitor, single point].
In the case of `COc1ccc2c(c1)sc1ncc(C(=O)NCc3ccc(OC(C)C)cc3)c(=O)n12`, the Potency is reported as inconclusive: 31.6 µM [inhibitor, single point].
With `COc1cc(C(=O)OCCN2CCCCC2)ccc1O` the “activity change, negative = inhibition” value was inactive: 5.45%.
In the case of `COC(=O)[C@H](C)NC(=O)Nc1cccc(C(F)(F)F)c1`, the “activity change, negative = inhibition” value is reported as inactive: -2.3%.
For `CC(C)N=C1NN=C(c2ccc(F)cc2)CS1`, the Potency was inconclusive: 15.8 µM [inhibitor, single point].
In the case of `CCCCN1C(=O)C(O)(c2c[nH]c3ccccc23)c2cc(Br)ccc21` (stereo unspecified), the Potency is reported as inconclusive: 35.5 µM [inhibitor, single point].
For `O=C(NNC(=O)C1C2C=CC(C2)C1C(=O)O)c1ccccc1` (stereo unspecified), the Potency was inconclusive: 3.16 µM [activator, partial curve, poor fit].
In the case of `COc1ccc(C(=O)Nc2cc(Cl)ccc2N2CCOCC2)cc1S(=O)(=O)N1CCOCC1`, the “activity change, negative = inhibition” value is reported as inactive: -30.1%.
With `CCOC(=O)c1cc(C#N)c(N2CCCCC2)nc1-c1ccccc1` the Potency was inconclusive: 35.5 µM [inhibitor, single point].
In the case of `CCCCn1c(N)c(N(CCOC)C(=O)c2cc(-c3ccc(OC)c(OC)c3)nc3ccccc23)c(=O)[nH]c1=O`, the “activity change, negative = inhibition” value is reported as inactive: -3.2%.
For `COc1cccc(/C=C/c2nc(C#N)c(NCCc3ccc(OC)c(OC)c3)o2)c1`, the “activity change, negative = inhibition” value was inactive: -0.287% [at 46.1 µM].
For `N#Cc1c(N)nc(N)nc1Nc1ccc(Br)cc1`, the Potency was inconclusive: 14.1 µM [inhibitor, single point].
